Numbering of substitutions follows the chain as printed. In names and notes the source's numbering stands. Results are given in words; binding and its absence hold for the method and conditions named. Some binding calls cover weakened binding; strength is not graded here.
Experiments:
[1] = target: cynomolgus monkey soluble IL-6R (from cynomolgus monkey serum) (cynomolgus monkey); experiment: anti-cynomolgus monkey IL-6R gp130 ELISA (blocking): plate coated with human gp130; binder mixed with human IL-6 and diluted cynomolgus monkey serum as the source of sIL-6R; bound IL-6R detected with BAF227; blocked: binding of the human IL-6/cyno sIL-6R complex to human gp130
[2] = target: T1, recombinant soluble human IL-6R (human, UniProt P08887 20-365); experiment: gp130 ELISA (blocking): plate coated with human gp130; binder mixed with human IL-6 and human sIL-6R; bound IL-6R detected with biotinylated anti-IL-6R BAF227; blocked: binding of the IL-6/sIL-6R complex to gp130
T1 sequence: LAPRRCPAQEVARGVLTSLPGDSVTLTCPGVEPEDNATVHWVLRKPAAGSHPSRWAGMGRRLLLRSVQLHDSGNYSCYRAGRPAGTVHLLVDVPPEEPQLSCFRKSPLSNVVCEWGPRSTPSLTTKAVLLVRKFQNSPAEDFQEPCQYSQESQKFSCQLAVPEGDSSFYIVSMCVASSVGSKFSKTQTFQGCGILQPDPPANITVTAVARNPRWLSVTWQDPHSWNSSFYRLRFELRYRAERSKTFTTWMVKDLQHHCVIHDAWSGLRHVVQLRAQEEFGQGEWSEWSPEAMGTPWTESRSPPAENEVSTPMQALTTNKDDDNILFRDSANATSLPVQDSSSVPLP

[3] = target: cynomolgus monkey soluble IL-6R (from cynomolgus monkey serum) (cynomolgus monkey); experiment: summary table, column 'Binds cyno monkey sIL-6R'
[4] = target: T1, recombinant soluble human IL-6R; experiment: gp130 ELISA (blocking), human arm of the cynomolgus cross-reactivity assay: plate coated with human gp130; binder mixed with human IL-6 and recombinant human sIL-6R; bound IL-6R detected with BAF227; blocked: binding of the IL-6/sIL-6R complex to gp130
[5] = target: cynomolgus monkey soluble IL-6R (from cynomolgus monkey serum) (cynomolgus monkey); experiment: anti-cynomolgus IL-6R gp130 ELISA
[6] = target: cynomolgus monkey soluble IL-6R (from cynomolgus monkey serum) (cynomolgus monkey); experiment: cynomolgus monkey IL-6R competition assay

Measured: binding

B1: 3C12 (VHH)
VHH: EVQLVESGGGLAQLGGSLRLSCVASGNIFSSNTAGWFRQAPGKQREWVAGISIGGMPAYADSVKGRFTISRDNAKNTVYLQMNSLKPEDTAVYYCATGGTEYDYWGQGTQVTVSS
notes: Llama ICVD from library 37-3, produced in E. coli; also called VIL-3C12; not shown: C-terminal Flag and 6xHis tags from vector pMEK222
binds: [1] | [2] | [3] | [4]

B2: 5G9 (VHH)
VHH: EVQLVESGGGLVQAGGSTRLTCKASGSIFNINSINVMAWYRQAPGKQRELVAIIGKGGGTNYADFVKGRFTISRDAAKNTVNLQMNSLKPEDTAVYYCYADYEDRDSPFNASWGQGTQVTVSS
notes: also called VIL-5G9; 'Wild type' 5G9; not shown: C-terminal Flag and 6xHis tags from vector pMEK222
binds: [1] | [3] | [5]

B3: ID-123V (VHH)
VHH: B2 VHH with F29S, Q47G, N82Y, K89R, R105H, F109H
notes: E. coli-produced trans-selective 5G9 derivative; E. coli version of ID-142V (lacks E1D); also called 5G9 + F29S, Q47G, N82Y, K89R, R105H, F109H; not shown: C-terminal FLAG-6xHis
binds: [6]

B4: 7F6 (VHH)
VHH: EVQLVESGGGLVQAGGSTRLTCLASGSISSINVIGWYRQAPGKQRELVAMIGRGEGANYGDFAKGRFTISRDNSKNTVYLQMNSLKPEDTAVYYCYADYEDRDSPFNGSWGQGTQVTVSS
notes: also called VIL-7F6; 'Wild type' 7F6; not shown: C-terminal Flag and 6xHis tags from vector pMEK222
binds: [1] | [3] | [5]

B5: 4D3 (VHH)
VHH: EVQLVESGGGSVQAGESLTLSCVASISTFSQNAMGWFRQAAGKRRESVARISSSGNVGYTDAVKGRFTMSRDNAKKTVYLQMNSLKPEDTAVYYCNAYSMSGELAAPWGQGTQVTVSS
notes: Llama ICVD from library 46-3, produced in E. coli; also called VIL-4D3; not shown: C-terminal Flag and 6xHis tags from vector pMEK222
binds: [1] | [2] | [3] | [4]
